No constants are given. Whether binding was seen depends on the method and setting. Some entries that bind do so weakly or less than the wild type.
Molecular target: human angiopoietin-2 (human) (UniProt O15123)
Test: ELISA at one concentration: plate coated with conditioned medium of 293T cells expressing full-length hAng-2 (aa 1-495, C-terminal 6xHis); binder at 1 µg/ml; HRP anti-human or anti-mouse IgG; O.D. 370; control pCDNA3 vector medium

By UniProt entry, the sequences of proteins in these tests, tags left out. Residues count along the entry.
UniProt O15123, residues 19-496: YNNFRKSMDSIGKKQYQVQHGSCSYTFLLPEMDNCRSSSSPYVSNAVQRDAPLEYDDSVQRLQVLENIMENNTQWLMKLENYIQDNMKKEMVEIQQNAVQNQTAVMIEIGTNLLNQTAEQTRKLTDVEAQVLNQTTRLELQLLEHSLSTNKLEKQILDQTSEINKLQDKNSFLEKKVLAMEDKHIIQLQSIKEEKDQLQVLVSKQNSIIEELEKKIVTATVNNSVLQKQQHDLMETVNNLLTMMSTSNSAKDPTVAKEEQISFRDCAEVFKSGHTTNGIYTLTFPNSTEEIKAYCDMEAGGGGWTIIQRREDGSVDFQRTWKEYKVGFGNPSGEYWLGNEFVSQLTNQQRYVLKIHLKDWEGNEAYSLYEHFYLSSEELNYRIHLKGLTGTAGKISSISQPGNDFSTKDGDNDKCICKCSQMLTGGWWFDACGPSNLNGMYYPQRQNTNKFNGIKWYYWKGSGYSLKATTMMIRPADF
UniProt Q02763, residues 23-748: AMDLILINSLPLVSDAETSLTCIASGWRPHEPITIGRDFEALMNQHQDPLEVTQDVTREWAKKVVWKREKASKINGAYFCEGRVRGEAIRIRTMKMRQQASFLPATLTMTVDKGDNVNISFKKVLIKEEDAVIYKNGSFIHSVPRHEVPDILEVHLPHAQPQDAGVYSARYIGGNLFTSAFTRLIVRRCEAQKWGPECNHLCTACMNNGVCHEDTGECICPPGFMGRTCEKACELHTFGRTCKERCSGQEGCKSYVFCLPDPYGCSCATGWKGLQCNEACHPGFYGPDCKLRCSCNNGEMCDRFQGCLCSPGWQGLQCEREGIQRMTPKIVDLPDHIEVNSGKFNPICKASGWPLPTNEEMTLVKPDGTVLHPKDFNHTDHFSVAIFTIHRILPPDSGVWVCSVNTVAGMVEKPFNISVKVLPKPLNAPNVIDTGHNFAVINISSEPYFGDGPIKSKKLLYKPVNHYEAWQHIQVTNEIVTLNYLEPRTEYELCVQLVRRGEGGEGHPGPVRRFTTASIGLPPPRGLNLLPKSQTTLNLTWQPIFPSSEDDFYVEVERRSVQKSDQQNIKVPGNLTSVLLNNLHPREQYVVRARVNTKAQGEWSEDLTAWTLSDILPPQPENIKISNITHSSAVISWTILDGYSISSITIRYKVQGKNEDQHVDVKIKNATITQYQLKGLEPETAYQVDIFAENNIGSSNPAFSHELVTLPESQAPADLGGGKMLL

Substance: Tie2-Fc (from UniProt Q02763 23-748) (Fc fusion)
- binding: binds

From US20130142799A1
